The series concerns HEp2 cells. Put plainly: Cellular imaging of live cells (uptake and localization). It is filed as cell-based. Particulars: fluorescence imaging. The source says:
There was a strong signal from the endoplasmic reticulum, and a smaller signal from mitochondria. […] No obvious staining of the plasma membrane was seen. However, since the plasma membrane has a large surface area, a relatively low surface signal might not have been detected. Three different filter sets, DAPI, FITC, and Texas Red, were used to select for wavelengths corresponding to the blue, green, and red emissions of SNAFR-2, respectively. […] However, autofluorescence was minimal with the longer wavelength filter sets, FITC and Texas Red.

Take `O=c1ccc2c(-c3ccccc3)c3ccc4cc(O)ccc4c3oc-2c1` [SNAFR-2]: the subcellular localization result was “appeared to localize in lipophilic compartments”.
The entry for `O=c1ccc2c(-c3ccccc3)c3cc4ccc(O)cc4cc3oc-2c1` [SNAFR-6] is “most of the compound's signal co-localized with the endoplasmic reticulum (ER)”.

The values above are taken from patent US8350064B2, “Fluorescent xanthenes and white light fluorophores” (Board of Supervisors of Louisiana State University And …, priority 2006, dated 2013).
